Measured values: paper PMC7274033
No constants are given. Whether binding was seen depends on the method and setting. Binding seen in cells or lysates may run through a third protein. Some binding calls cover weakened binding; strength is not graded here. Each block holds one substance with its values, some of them ahead of it.

The chains behind the UniProt entries cited, without tags or fusion partners.
UniProt Q9QZL0: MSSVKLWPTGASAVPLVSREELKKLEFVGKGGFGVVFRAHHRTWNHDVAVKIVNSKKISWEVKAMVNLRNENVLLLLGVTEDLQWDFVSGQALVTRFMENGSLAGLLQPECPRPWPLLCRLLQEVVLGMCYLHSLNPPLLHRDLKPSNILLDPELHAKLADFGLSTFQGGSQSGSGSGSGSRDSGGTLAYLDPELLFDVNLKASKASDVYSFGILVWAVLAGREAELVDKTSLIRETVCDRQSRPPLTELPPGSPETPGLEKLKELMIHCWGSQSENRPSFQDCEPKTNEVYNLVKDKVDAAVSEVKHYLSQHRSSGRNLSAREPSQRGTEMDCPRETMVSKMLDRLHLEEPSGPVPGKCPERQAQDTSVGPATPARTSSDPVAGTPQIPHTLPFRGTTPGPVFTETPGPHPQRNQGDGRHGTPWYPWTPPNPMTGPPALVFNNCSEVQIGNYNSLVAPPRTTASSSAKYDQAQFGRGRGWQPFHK
UniProt Q8R4B8: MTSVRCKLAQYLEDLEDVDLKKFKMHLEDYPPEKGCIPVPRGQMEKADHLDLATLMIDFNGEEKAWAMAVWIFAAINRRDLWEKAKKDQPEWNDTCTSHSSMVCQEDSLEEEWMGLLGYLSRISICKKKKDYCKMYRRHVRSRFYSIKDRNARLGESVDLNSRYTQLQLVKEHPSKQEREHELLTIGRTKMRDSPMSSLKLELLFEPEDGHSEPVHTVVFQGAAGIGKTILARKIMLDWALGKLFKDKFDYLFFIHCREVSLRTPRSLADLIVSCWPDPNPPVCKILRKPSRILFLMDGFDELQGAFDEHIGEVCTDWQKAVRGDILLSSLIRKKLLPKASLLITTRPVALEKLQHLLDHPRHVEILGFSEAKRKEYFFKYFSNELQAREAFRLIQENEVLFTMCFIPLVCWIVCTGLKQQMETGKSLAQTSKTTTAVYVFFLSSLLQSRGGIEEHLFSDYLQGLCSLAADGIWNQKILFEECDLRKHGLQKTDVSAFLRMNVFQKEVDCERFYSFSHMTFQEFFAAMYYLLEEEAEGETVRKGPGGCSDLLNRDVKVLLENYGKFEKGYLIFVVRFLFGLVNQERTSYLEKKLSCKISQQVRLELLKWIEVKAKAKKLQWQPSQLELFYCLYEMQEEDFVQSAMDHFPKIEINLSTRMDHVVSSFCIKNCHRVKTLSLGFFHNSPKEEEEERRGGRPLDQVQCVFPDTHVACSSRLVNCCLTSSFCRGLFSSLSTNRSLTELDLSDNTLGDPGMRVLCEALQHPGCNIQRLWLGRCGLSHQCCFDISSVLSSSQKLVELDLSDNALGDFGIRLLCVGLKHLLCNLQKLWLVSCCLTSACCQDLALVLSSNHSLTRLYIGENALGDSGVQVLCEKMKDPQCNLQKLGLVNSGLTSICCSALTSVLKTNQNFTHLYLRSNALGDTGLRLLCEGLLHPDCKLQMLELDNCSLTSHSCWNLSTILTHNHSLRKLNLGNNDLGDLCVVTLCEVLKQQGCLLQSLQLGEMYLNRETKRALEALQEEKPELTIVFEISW

Key:
[1] = target: RIPK3-GFP (receptor-interacting serine/threonine-protein kinase 3) (UniProt Q9QZL0); assay: co-IP; HEK293T co-transfected (600 ng each, 30 h) with ASC-turboGFP, CASP8, FLAG-NLRP3, RIPK1 and mCherry-ZBP1 with or without RIPK3-GFP; zVAD-fmk; RIPK3 immunoprecipitated; NP-40 lysis buffer; protein A/G-plus agarose; immunoblot
[2] = target: FLAG-tagged NLRP3 (nucleotide-binding oligomerization domain-like receptor family pyrin domain-containing 3) (UniProt Q8R4B8); assay: co-IP; HEK293T co-transfected (600 ng each, 30 h) with FLAG-NLRP3 and ZBP1, RIPK3 or RIPK1 individually; zVAD-fmk; NP-40 lysis buffer (1% NP-40, 150 mM NaCl, 50 mM HEPES); antibody overnight at 4°C, protein A/G-plus agarose; immunoblot
[3] = target: T1, RIPK1 (RIP kinase 1), endogenous in BMDMs (mouse (endogenous in BMDMs)) (UniProt Q60855); assay: co-IP; endogenous proteins of primary BMDMs stimulated 4 h with LPS (100 ng/mL) + TAK1 inhibitor 5Z-7-oxozeaenol (0.1 uM) + zVAD; NP-40 lysis buffer; RIPK1 or ASC immunoprecipitated overnight at 4°C, protein A/G plus agarose; immunoblot
T1 sequence: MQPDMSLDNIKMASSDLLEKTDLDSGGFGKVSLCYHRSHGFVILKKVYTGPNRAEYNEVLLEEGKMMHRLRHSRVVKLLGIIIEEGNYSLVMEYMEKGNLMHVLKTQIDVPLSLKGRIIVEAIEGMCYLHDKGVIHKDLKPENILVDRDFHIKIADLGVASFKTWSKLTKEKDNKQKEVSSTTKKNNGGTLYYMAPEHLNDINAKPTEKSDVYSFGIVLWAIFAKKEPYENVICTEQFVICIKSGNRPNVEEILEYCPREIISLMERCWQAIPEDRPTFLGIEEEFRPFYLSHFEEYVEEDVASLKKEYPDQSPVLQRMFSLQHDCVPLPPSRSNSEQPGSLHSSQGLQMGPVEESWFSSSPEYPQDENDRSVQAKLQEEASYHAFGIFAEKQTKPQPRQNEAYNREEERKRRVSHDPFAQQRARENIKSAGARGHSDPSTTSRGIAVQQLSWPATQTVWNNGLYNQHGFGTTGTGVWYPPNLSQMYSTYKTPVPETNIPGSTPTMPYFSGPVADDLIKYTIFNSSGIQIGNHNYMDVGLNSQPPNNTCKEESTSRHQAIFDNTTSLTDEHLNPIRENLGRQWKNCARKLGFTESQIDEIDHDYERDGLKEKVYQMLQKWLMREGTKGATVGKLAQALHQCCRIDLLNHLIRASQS

[4] = target: T1, RIPK1 (RIP kinase 1), endogenous in BMDMs (mouse (endogenous in BMDMs)); assay: co-IP; endogenous proteins of primary BMDMs stimulated 4 h with LPS (100 ng/mL) + TAK1 inhibitor 5Z-7-oxozeaenol (0.1 uM), without zVAD; NP-40 lysis buffer; RIPK1 or ASC immunoprecipitated, protein A/G plus agarose; immunoblot

binding [1]: binds
Substance: FLAG-tagged NLRP3 (nucleotide-binding oligomerization domain-like receptor family pyrin domain-containing 3) (from UniProt Q8R4B8 1-1033)

binding [2]: binds
Substance: RIPK3-GFP (receptor-interacting serine/threonine-protein kinase 3) (from UniProt Q9QZL0 1-486)

binding [3]: binds
binding [4]: binds weakly
Substance: NLRP3, endogenous in BMDMs (from UniProt Q8R4B8 1-1033)
